The target of experiment [1] is StrepHA-tagged wildtype SLC15A4 (human) (UniProt Q8N697). As to the kind of experiment: co-IP; anti-HA agarose IP of StrepHA-tagged SLC15A4 variants from lysates of sgSLC15A4 THP1 cells; E1A lysis buffer (50 mM HEPES, 250 mM NaCl, 5 mM EDTA, 1% NP-40, pH 7.4), overnight at 4 °C, three washes, western blot.
Experiment [2] shares this target. The experiment can be described thus: pull-down; StrepTactin beads on lysates of StrepHA-SLC15A4-expressing THP1 cells co-expressing TASL N-terminus-GFP fusions; E1A lysis buffer (50 mM HEPES, 250 mM NaCl, 5 mM EDTA, 1% NP-40, pH 7.4), overnight at 4 °C, western blot.

Chains of the proteins cited; added tags and fusions are not shown.
UniProt Q8N697: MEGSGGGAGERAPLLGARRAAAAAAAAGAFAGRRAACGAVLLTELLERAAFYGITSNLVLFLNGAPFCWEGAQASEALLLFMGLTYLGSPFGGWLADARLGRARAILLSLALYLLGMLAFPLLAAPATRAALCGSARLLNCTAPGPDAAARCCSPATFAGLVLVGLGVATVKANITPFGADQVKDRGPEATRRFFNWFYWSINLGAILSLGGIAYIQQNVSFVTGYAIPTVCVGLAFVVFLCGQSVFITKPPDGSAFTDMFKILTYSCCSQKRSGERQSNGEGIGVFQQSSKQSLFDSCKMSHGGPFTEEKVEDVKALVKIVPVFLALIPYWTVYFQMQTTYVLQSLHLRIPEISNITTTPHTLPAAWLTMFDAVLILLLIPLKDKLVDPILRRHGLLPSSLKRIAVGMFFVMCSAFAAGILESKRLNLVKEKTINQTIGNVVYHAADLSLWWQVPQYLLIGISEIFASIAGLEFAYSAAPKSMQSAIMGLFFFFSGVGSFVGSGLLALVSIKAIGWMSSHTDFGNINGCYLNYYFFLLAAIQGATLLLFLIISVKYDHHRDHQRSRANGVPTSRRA

Results are given in words; binding and its absence hold for the method and conditions named. Binding seen in cells or lysates may run through a third protein. Some binding calls cover weakened binding; strength is not graded here. For part of these data: Tags and fused reporters may be left off the sequences shown.

Drawing on PMC10589233, this text covers binding for three molecules.

B1: TASL (protein, UniProt Q9HAI6 1-301)
chain: MLSEGYLSGLEYWNDIHWSCASYNEQVAGEKEEETNSVATLSYSSVDETQVRSLYVSCKSSGKFISSVHSRESQHSRSQRVTVLQTNPNPVFESPNLAAVEICRDASRETYLVPSSCKSICKNYNDLQIAGGQVMAINSVTTDFPSESSFEYGPLLKSSEIPLPMEDSISTQPSDFPQKPIQRYSSYWRITSIKEKSSLQMQNPISNAVLNEYLEQKVVELYKQYIMDTVFHDSSPTQILASELIMTSVDQISLQVSREKNLETSKARDIVFSRLLQLMSTEITEISTPSLHISQYSNVNP
For the molecule B1, the binding result in experiment [1] was “binds”.

As for MLSEGYLSGLEYW (domain or fragment, UniProt Q9HAI6 1-13) [TASL (1-13) fused to GFP], the binding result in experiment [2] was “binds”.

On to MLSEGYLSGLEY (domain or fragment, UniProt Q9HAI6 1-12) [TASL (1-12) fused to GFP], for which, in experiment [2], the binding result was “no binding”.
